Data as given in PubChem BioAssay AID1259424 (University of Nebraska Medical Center, 2018)

- Assay: 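Rank knockdowns across the genome by resemblance to the KSR1 depletion profile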 (primary screen)
- System: human HCT116 colon cancer cells
- Reagent: siRNA pool against human genes, 50 nM
- Measurement: 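Six signature mRNAs by branched-DNA multiplex assay, scaled to two housekeeping genes and non-targeting median, log2; matched to mean KSR1 knockdown profile by Pearson correlation and euclidean distance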
- Reading the numbers: mean correlation with KSR1 profile: higher = expression change more like KSR1 knockdown
Shown is a random part of about 14,000 deposited reagents. 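Higher correlation or smaller distance means closer resemblance to KSR1 loss; control wells, including KSR1 knockdowns, recur on many plates.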 Not all columns of the deposit are shown. No sequences are given here. Not given: the time to read-out.

| Gene | mean correlation with KSR1 profile |
| --- | --- |
| GM2A | -0.841 |
| EIF4E2 | 0.561 |
| CEBPD | 0.0561 |
| TGFBRAP1 | -0.219 |
| PLA2G6 | -0.317 |
| ME2 | 0.0611 |
| COX6A2 | -0.329 |
| CHKA | 0.806 |
| CCDC134 | 0.0534 |
| DDOST | 0.203 |
| RXFP1 | 0.63 |
| ADAMTS7 | -0.57 |
| DEPDC5 | 0.035 |
| FAM162A | -0.394 |
| PLAUR | -0.384 |
| RFPL1 | -0.487 |
| CASP2 | -0.319 |
| NALF2 | 0.844 |
| NTPCR | 0.38 |
| TAP1 | -0.466 |
| PRAMEF1 | 0.137 |
| ARPC4 | -0.0316 |
| SECISBP2L | -0.00362 |
| USP18 | 0.321 |
| POLD2 | -0.184 |
| ZSCAN5A | 0.405 |
| B4GALT4 | -0.929 |
| CCL25 | 0.545 |
| TFAM | -0.0411 |
| PDE9A | 0.107 |
| INHBC | -0.262 |
| CLDN14 | -0.628 |
| ANKEF1 | 0.64 |
| ZNF223 | 0.291 |
| PRPF31 | 0.522 |
| TRPV6 | -0.108 |
| CRP | -0.39 |
| KCNS2 | -0.383 |
| LINC00312 | 0.22 |
| ITGBL1 | 0.25 |
| LCP2 | 0.739 |
| ANKRD17 | 0.523 |
| ZNF75A | 0.572 |
| NMU | -0.0481 |
| STK32A | 0.982 |
| SERTAD1 | -0.338 |
| HRG | -0.103 |
| STIP1 | -0.421 |
| GAS6 | -0.555 |
| BLK | 0.242 |
